The other results are listed elsewhere or left out.

The test system of the test is T1, CTL2-GFP (C. trachomatis L2/434/Bu, GFP-expressing).
T1 construct: L2/434/Bu, GFP-expressing
On the set-up: species or system HeLa; Intracellular C. trachomatis growth in HeLa cells, bulk GFP fluorescence relative to DMSO. To be noted: bulk GFP, single well; 28.5 h, 10 µM; inhibitor.
As to `OCCNc1nc(Nc2ccc(Br)cc2)nc2ccccc12` [CBK266724C], the “% of control remaining” value worked out at 12.0496%. Then `COC(=O)N1CCC(C(=O)NC(c2ccccc2)c2ncccc2C)CC1` (stereo not shown) [CBK059885], with 88.7671%; and `O=C(NCCc1ccccc1)c1c(NC(=O)C2COc3ccccc3O2)sc2c1CCCC2` (stereo not shown) [CBK265522], with 100%. Take `O=C(c1csc2c1CCCC2)N1CCC(O)(c2ccccn2)CC1` [CBK282397]: the “% of control remaining” value is reported as 98.4441%.

For the molecule `CCCC(=O)Nc1ccccc1NC(=O)c1cccc([N+](=O)[O-])c1C` [CBK267398], the “% of control remaining” value was 132.181%. Then `CCN1CCN(Cc2cc(Cl)ccc2OCCCn2ccnc2)CC1` [CBK306990], with 124.92%; and `COc1ccc2c(c1)CCC(c1ccccc1)=C2c1ccc(OCC(O)CN)cc1` (stereo not shown) [CBK015723C], with 23.3131%.

As for `COc1cc2c(cc1NS(=O)(=O)N1CCCCC1)oc1ccccc12` [CBK268355], the “% of control remaining” value stood at 143.381%. Take `Cc1cc(C(=O)NCCCN(C)C)ccc1[N+](=O)[O-]` [CBK262467]: the “% of control remaining” value is given as 105.393%.

With `O=C(C1CN(C(=O)Cn2ncc(=O)c3ccccc32)c2ccccc2O1)N1CCCCC1` (stereo not shown) [CBK297115], the “% of control remaining” value came out at 130.1%. As to `O=[N+]([O-])c1ccccc1S(=O)(=O)N1CCN(S(=O)(=O)Cc2ccccc2)CC1` [CBK264230], the “% of control remaining” value stood at 126.702%. On to `COc1ccc(OC)c(NC(=O)c2cc(=O)[nH]c3ccccc23)c1` [CBK297521], for which the “% of control remaining” value stood at 127.488%. On to `COc1ccccc1CC(C)NC(=O)c1cc(C2CC2)nn1C` (stereo not shown) [CBK283290], for which the “% of control remaining” value is given as 104.17%.

For the molecule `N#Cc1cccnc1SC(C(=O)O)c1ccccc1` (stereo not shown) [CBK286614], the “% of control remaining” value came out at 101.662%.

On to `COc1ccc(-c2nnc(S)n2/N=C\c2ccc(C(=O)O)cc2)cc1` [CBK264419], for which the “% of control remaining” value was 100%. As to `Cc1cc(NC(=O)c2sc3nc4c(cc3c2N)N2CCC4CC2)no1` [CBK270217], the “% of control remaining” value is recorded as 116.265%. Then `COc1ccc(CCC(=O)N2CCC(c3cccc(Cc4cccc(F)c4)n3)CC2)cc1` [CBK286212], with 100.001%.

`Cc1csc(C(Cc2ccsc2)NC(=O)c2cnn(C)c2C)n1` (stereo not shown) [CBK285148]: the “% of control remaining” value was found to be 112.893%. `O=C(NCc1cn2ccccc2n1)c1ccc(C2SCCS2)cc1` [CBK295167]: the “% of control remaining” value is 108.303%.

Consider `CC(C)N1C(=O)[C@@H]2CN(C(=O)C3CCCC3)CCN2C1=O` [CBK289612], for which the “% of control remaining” value was 108.315%. As to `COc1cc(NC(=O)c2cc([N+](=O)[O-])ccc2N2CCOCC2)ccc1-c1cc2ccccc2oc1=O` [CBK269128], the “% of control remaining” value amounted to 151.431%. `CCOC(=O)c1[nH]c2ccccc2c1NC(=O)Cc1c(Cl)cccc1Cl` [CBK160132]: the “% of control remaining” value was 117.092%.

For the molecule `Cc1nnc(-c2cc(CCC(C)C)n(-c3cccc(C(=O)N4CCCCC4)c3)n2)o1` [CBK114689], the “% of control remaining” value was 110.54%. Then `O=C(O)COCC(=O)N1CCN(C(c2ccccc2)c2ccccc2)CC1` [CBK232579], with 135.311%; and `COc1cc(Nc2cc(C)nc3ncnn23)ccc1N1CCCC1=O` [CBK297725], with 155.449%. Then `COc1ccc(CNC(=O)N(Cc2cccnc2)Cc2ccc3c(c2)OCO3)cc1OC` [CBK159456], with 142.464%; and `CCNC(=O)NC[C@H]1C[C@@H]2CCN1C[C@@H]2c1cc(-c2ccccc2)nc(C)n1` [CBK289125], with 99.5879%. To `CCN(CC)C(=O)CN1CCC(Oc2cncc(OCc3cccnc3)n2)C1` (stereo not shown) [CBK084461] belongs 77.0129%; to `NS(=O)(=O)c1ccc(CNC(=O)c2cc(-c3cccnc3)nc3ccc(Br)cc23)cc1` [CBK267740], 128.389%; to `CCOC(=O)C1CCN(Cc2nc(-c3ccc(OC)c(OC)c3)no2)CC1` [CBK268852], 132.046%. Regarding `CCOc1ccccc1-c1ccccc1NC(=O)c1ccc(-n2nc(C)cc2C)cc1` [CBK285845], the “% of control remaining” value was found to be 68.6533%. As for `Cc1cccc(-c2noc(CNC(=O)CSc3ccccc3)n2)c1` [CBK270209], the “% of control remaining” value was found to be 100.833%. Then `Cc1ccc(CN(Cc2c[nH]cn2)C2CC(C)(C)NC(C)(C)C2)o1` [CBK283175], with 114.5%; and `CS(=O)(=O)N1C[C@@H]2CCCCN(Cc3cccc(F)c3)[C@@H]2C1` [CBK285514], with 120.533%.

Turning to `O=C(NC[C@H]1CCCN(C(=O)c2cccs2)C1)c1ccco1` [CBK284261], the “% of control remaining” value is listed as 164.6%. For `N#Cc1cccc(Nc2cncc(-c3cccs3)n2)c1` [CBK066030], the “% of control remaining” value is 120.611%. For `COc1ccc(C(=O)N2C[C@H]3Cc4c(n[nH]c4C(F)F)[C@H]3C2)s1` [CBK283425], the “% of control remaining” value was 123.169%.

With `CCc1nn(CC(=O)N2CCCC2)c(=O)c2cc3oc(C)cc3n12` [CBK283584], the “% of control remaining” value was found to be 114.061%. To `O=C1NC(=O)C(CC(=O)N2CCC3(CCN(Cc4ccccc4)C3)C2)N1` (stereo not shown) [CBK136850] belongs 88.7114%. To `CN1CCCc2cc(CN3CCC4(CCCNC4=O)CC3)ccc21` [CBK284876] belongs 113.887%. To `COCCC(=O)Nc1cnc(-c2ccc(F)c(Cl)c2)c(-c2cccnc2)n1` [CBK036938] belongs 173.966%; to `Fc1cc(Br)c(CNCc2cocn2)c(N2CCCCC2)c1F` [CBK304792], 126.681%; to `CC(NC(=O)N(Cc1ccc(-c2ccccc2)cc1)CC(C)(C)CN)c1cccc2ccccc12` (stereo not shown) [CBK002426C], 25.4012%. For `CN1CCN(Cc2c(-c3ccc(F)cc3)[nH]c3ncccc23)CC1` [CBK285335], the “% of control remaining” value was determined as 149.837%. Then `CN1CCN(C(=O)CNS(=O)(=O)c2cc(Br)c(Cl)s2)CC1` [CBK034482], with 93.9157%; and `O=C(O)C1C2C=CC(C2)C1C(=O)N1CCN(Cc2ccccc2Cl)CC1` (stereo not shown) [CBK270334], with 141.554%. To `Cc1cccc(C(=O)Nc2cc(NC(=O)c3cccc(C)c3)cc(C(=O)O)c2)c1` [CBK269649] belongs 127.758%; to `CCOC(=O)CN1CCC(Oc2nccnc2OCC2COc3ccccc3O2)CC1` (stereo not shown) [CBK082989T], 112.791%. Then `Cc1cc(=O)[nH]c(CCNc2cc([C@H]3C[C@@H](N)C3)nc(C3CC3)n2)n1` [CBK307651], with 115.22%.
